Data: PubChem BioAssay AID1347426 (Functional Genomics Laboratory (NCATS/FGL), 2020)
About 1,400 (4.5%) of roughly 31,000 sequences were called active.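 How the source made its calls: active means median seed-adjusted z-score above 1 or below -1; inactive means the rest.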 Some of the results follow.

Assay: Novel Modifiers of Survival Motor Neuron (SMN) Protein: Gene Identification via Genome-wide siRNA Screen;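 further: luminescence tracks full-length SMN protein made from the SMN2 reporter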
Conditions: HEK293T SMN2-luciferase reporter, siRNA knockdown, 72 h; actives lie on both sides
Method in brief: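 HEK293T cells stably expressing an SMN2 splicing/cDNA-luciferase reporter were reverse-transfected with a druggable-genome siRNA library and read by luminescence at 72 hours; hits defined by MAD score above 1.0 or below -1.0.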

Row | Sequence | median seed-adjusted z-score
1 | GAGUCCCAUUUACAGCUAUTT against PFTK2 | active: -1.16
2 | CCCUGAAUUUGGUCAAGCATT against AGTPBP1 | inactive: -0.201
3 | CAGAUAACCCUGAAUGACATT against NEDD4L | inactive: 0.212
4 | GAAUCAUCCAAAGUUGUGATT against ZNF583 | inactive: -0.225
5 | GACCAGUCGUUUCUAGAAATT against ADCK2 | inactive: 0.0823
6 | AGAUACCUGUCAUCGGUCATT against MRGPRX3 | inactive: -0.175
7 | CGGUCGCUGAAAACCCAAUTT against PCDHGB1 | inactive: -0.482
8 | GCAGCUCACAUAACUGGGATT against TNFSF10 | inactive: 0
9 | CAACCUUGCGGCAUGCAAATT against PRSSL1 | inactive: -0.221
10 | GACUGGUUGUUGCUCAGAUTT against LPGAT1 | inactive: 0.625
11 | CAGUGGAUUCGAGAAGUGATT against ERBB3 | inactive: -0.561
12 | GCCUACAUGUUCAACGAGATT against TRPC7 | inactive: 0.146
13 | GUGUCCAACAGAUACGGAATT against DSCAM | inactive: -0.527
14 | GAACGAGUACAGCAAUAUATT against HNRPDL | inactive: -0.68
15 | GGCUUUAAGGUGUACUUCATT against SCN4A | inactive: -0.681
16 | UAAUCAAUCUGGAAUGUUUTT against BMP8B | inactive: 0
17 | CAGCCCAAGUGUCGCCUUATT against PAX9 | active: -1.16
18 | GGCAUGAUCUACAAAUACATT against SLC12A4 | inactive: -0.0667
19 | CAUACAGCAUUGAACUUCATT against MANBA | inactive: 0.473
20 | GCAAAAUCCUCGUUUCUGUTT against MRGPRX4 | inactive: -0.113
21 | ACCUCAAGAUCAUCACUGATT against SMARCD2 | inactive: 0.162
22 | GUGCCUUGAUGUAUCCCAATT against MMP8 | inactive: -0.781
23 | GCUCGUGUAUACUACCAAUTT against LPXN | inactive: -0.065
24 | GGAUCUUCAGUGUGCGCAATT against GPR50 | inactive: -0.0348
25 | GGAGAAAGCUAAUCAGCGATT against CUX2 | inactive: 0
26 | GGAAGAUUACCGAACGAGATT against PPP2R2C | inactive: -0.87
27 | UGUUCAAACGCACUGUUUATT against DLX1 | inactive: 0.0356
28 | GCAUAUUGCGAUCCUGGAATT against PRL | inactive: 0
29 | CACAGACGGUCAACAACAATT against NFYB | inactive: -0.29
30 | GAGUUCCUCUUGGAUCUAATT against CASQ2 | inactive: 0.4

An excerpt of these results, with tabs.
Row	Sequence	median seed-adjusted z-score
16	UAAUCAAUCUGGAAUGUUUTT against BMP8B	inactive: 0
17	CAGCCCAAGUGUCGCCUUATT against PAX9	active: -1.16
